Results taken from paper PMC9681739.

Biological target: T1, syndecan-4 (rat) (UniProt P34901)
T1 sequence: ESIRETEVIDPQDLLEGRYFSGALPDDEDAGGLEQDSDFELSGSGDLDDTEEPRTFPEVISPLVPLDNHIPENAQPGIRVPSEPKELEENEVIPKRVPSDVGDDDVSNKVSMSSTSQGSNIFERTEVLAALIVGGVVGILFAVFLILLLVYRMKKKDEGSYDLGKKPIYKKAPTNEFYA
Test: co-IP; chondrocytes transduced with Lv-Sdc4 (MOI = 100), cold RIPA lysis buffer; 1 ug anti-SDC4 (PA1-32485) or normal rabbit IgG overnight at 4 °C, protein A/G PLUS-Agarose 3 h at 4 °C; western blot with anti-ADAMTS-5 (ab41037)

Substance: ADAMTS-5 (rat (endogenous in rat chondrocytes)) (enzyme)
- binding: binds

Results are given in words; binding and its absence hold for the method and conditions named. Binding seen in cells or lysates may run through a third protein. Binding calls can cover weak binding; strength is not graded here.
